Results reported in patent US9511016B2, “Topical composition for treating pain” (EpicentRx, Inc., priority 2007, dated 2016).
Some results were stated once for a whole list of compounds, not compound by compound.

Test system: Human Patient with Pain
Experiment: Topical treatment of human patients with pain: pain level (x/10), mobility, duration
Assay type: in vivo
Conditions: Ex.34 V(a)

For CC(C)(C)NCC(O)c1ccc(O)c(CO)c1 (stereo not shown) [albuterol inhaler, albuterol], the “Time to decrease of pain after inhaler” value was no more than 30 s.
